Experimental data as given in publication PMC2289734 (The Journal of Cell Biology, 1992).

Tested on: export of VSV-G protein from the ER
Assay type: cell-based

In the case of `CN[C@@H]1C[C@H]2O[C@@](C)([C@@H]1OC)n1c3ccccc3c3c4c(c5c6ccccc6n2c5c31)C(=O)NC4` [staurosporine], the “antagonism of the inhibitory effect of mastoparan” value is reported as “does not antagonize”.
